Patent US20030050236A1, “Compounds that enhance tumor death” (The University of Chicago, priority 2000, published 2003)
Some results were stated once for a whole list of compounds, not compound by compound. At least one structure is not confirmed: it was looked up by name or label, or the drawing left a doubt.

Tests used:
caspase 3 = test: Caspase 3-like activity (DEVD-AFC) in LA-N-5 cells; assay type: cell-based, human; conditions: 24 h of treatment; PPT1-transfected vs vector LA-N-5
Procedure: Cells treated with drug or vehicle were harvested, washed with PBS and cell pellets lysed in 25 mM Hepes (pH 7.4), containing 2 mM dithiothreitol (DTT), 5 mM EDTA and […] digitonin. After centrifugation at 6,000 rpm for 10 min to remove cell debris and unruptured cells, an aliquot of the supernatant was added to a reaction buffer consisting of 25 mM Hepes (pH 7.4), 2 mM DTT, 5 mM EDTA, […] digitonin and 2.5 μg/ml DEVD-AFC. After 1 h incubation, the hydrolysis of substrate was quantified by fluorometry at excitation 400 mn and emission 505 nm. The blank reaction was done in the absence of cell lysate. Enzyme activity was expressed as the amount of fluorescence produced per mg protein/h.

[1] = system: PPT1 overexpressing LA-N-5 cells; test: Cell death by MTT assay in PPT1 overexpressing cells; assay type: cell-based, human; conditions: single agent, 6 h, PPT1 overexpressed more than 2-fold
Procedure: Cells were plated in 24-well culture plates containing 500 μl media. After drug treatment, 50 μl MTT (5 mg/ml in PBS) was added and incubated for 20 min at 37° C. An aliquot of 500 μl of 10% sodium dodecyl sulfate in 0.01 N HCl was added. After incubating overnight, the absorbance at 570 nm was determined by spectrophotometry. Cell viability was calculated as percent cell survival by dividing absorbance [treatment-blank] by absorbance [control-blank], where treatment is the reading for the treated cells, control is for vehicle-treated cells and blank is for MTT added to the media without cells.
In order to further verify that the increased susceptibility to drug-induced apoptosis of the AS-PPT1 treated cells was due to compromised PPT1 activity, the extent of cell death induced by C2-ceramide treatment in control was compared to DAP 1-treated cells. Treatment of cells with DAP1 alone induced 5-10% death of cells at DAP1 concentrations up to 100 μM for 6 h., as measured by MTT assay (FIG. 10A). […] In these cells, neither C2-ceramide, DAP1 alone or DAP1 (100 μM) followed by C2-ceramide (30 μM) for 6 h induced more than 10% cell death (FIG. 10B).
LA-N-5 human neuroblastoma cells were grown in DMEM supplemented with 10% fetal bovine serum and 1% gentamicin. […] Cell death was measured by the MTT method (Cho et al., 2000a; Cho et al., 2000b; Cho et al., 2000c).

CCCCCCCCCCCCC/C=C/[C@@H](O)[C@H](CO)NC(C)=O [C2 ceramide]
activation of caspase 3 in PPT1-transfected cells, relative to control cell line (caspase 3): 47-50%
cell death (MTT) [1]: ≤ 10%
